The numbers were not newly measured in paper PMC5955586, “Transport of enniatin B and enniatin B1 across the blood-brain barrier and hints for neurotoxic effects in cerebral cells” (PLoS ONE, 2018), which cites them from elsewhere.

Broadly, the Papp is the rate of passage across a membrane or cell layer, normalised by area and donor concentration.

In the data set the test system is PBCEC. As to conditions: cited from earlier work.

In the case of `CN1C(=O)CN=C(c2ccccc2)c2cc(Cl)ccc21` [diazepam], the apparent permeability coefficient (Papp) was 12.7 ×10⁻⁶ cm/s.
